# Data from the supplement of paper PMC9015667.
# This is one part of the list. Most values come without repeats; read them as rough.
# System: UACC62P (parental melanoma line)
# Experiment: reduction in cell viability relative to untreated/vehicle; higher = more growth inhibition
# Conditions: 200 nM; 72 h
row,Structure (SMILES),reduction in cell viability [%]
1,Cc1c(C)n(Cc2ccc(-c3ccccc3C(=O)O)cc2)c2ccc(C(=O)N[C@@H](C)c3ccc([N+](=O)[O-])cc3)cc12,< 0
2,O=c1cc(CN2CCOCC2)occ1OCCCCCSc1ccnc2cc(C(F)(F)F)ccc12,< 0
3,O=c1ncn2nc(Sc3ccc(F)cc3F)ccc2c1-c1c(Cl)cccc1Cl,< 0
4,CO[C@H]1/C=C/O[C@@]2(C)Oc3c(C)c(O)c4c(c3C2=O)C2=NC3(CCN(CC(C)C)CC3)NC2=C(NC(=O)/C(C)=C\C=C\[C@H](C)[C@H](O)[C@@H](C)[C@@H](O)[C@@H](C)[C@H](OC(C)=O)[C@@H]1C)C4=O [Rifabutin],< 0
5,O=C(O)C1=CO[C@@H](O[C@@H]2O[C@H](CO)[C@@H](O)[C@H](O)[C@H]2O)[C@@H]2C(CO)=CC[C@H]12 [Geniposidic acid],2.09
6,O=c1c(-c2ccc(O)cc2)coc2cc(O)cc(O)c12 [Genistein],< 0
7,CC(CCc1ccc(O)cc1)NCCc1ccc(O)c(O)c1 (stereo unspecified) [Dobutamine],5.26
8,C=C1C(=O)[C@]23[C@H](O)[C@H]1CC[C@H]2[C@@]12CO[C@]3(O)[C@@H](O)[C@@H]1C(C)(C)CC[C@@H]2O [Oridonin],< 0
9,CC(C)OC(=O)C(C(=O)OC(C)C)=C1SC=CS1 [Malotilate],2.93
10,COc1cc2c(cc1-c1c(C)noc1C)ncc1[nH]c(=O)n([C@H](C)c3ccccn3)c12,19.4
11,Oc1ccc([C@@H]2Oc3ccc(O)cc3[C@@H]3CCC[C@@H]32)cc1 [Erteberel],< 0
